# Reference: PubChem BioAssay AID720505 (Drosophila RNAi Screening Center, 2013)
# Screen: 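Fly regulators or components of the CRAC channel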 (primary screen)
# System: Drosophila S2R+ cells
# Knock-down reagent: long dsRNA against Drosophila genes
# Treatment: thapsigargin (2 µM) in calcium-free buffer to empty internal stores, then 2 mM calcium added back
# Read-out: 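Fluo-4 signal in 384-well plates read on a FLIPR after thapsigargin (2 µM, calcium-free) store depletion and 2 mM calcium add-back; unnormalised mean endpoint per well; screen run twice, selected wells retested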
# Reading the numbers: calcium signal and retest calcium signal: higher = more calcium entry after store depletion
# Call rule: 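About 1500 genes called as lowering calcium entry, by varying amounts, judged against per-plate control wells with STIM1 as positive and Rho1 as negative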
# Meaning of the calls: active = called as lowering calcium entry; inactive = not called
# The deposit covers about 20,000 reagents; below is an unselected part of those that have a named target and a result. Of all reagents, about 2,100 (10%) were called active. 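Raw plate signals without normalisation; calls rest on control-based scores that were not deposited; replicate 2 separates called from uncalled poorly.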 A plus sign joins genes that one reagent is predicted to hit. Reagent sequences are not shown. The record does not give: the amount of reagent, the time to read-out.
gene knocked down,amplicon,"calcium signal, replicate 1","calcium signal, replicate 2","retest calcium signal, replicate 1","retest calcium signal, replicate 2",call
Med,DRSC16737,122,134,,,inactive
side-VIII,DRSC05880,101,105,,,inactive
side-VIII,DRSC05883,64.1,119,,,active
side-VIII,DRSC06157,106,78.3,100,115,inactive
side-VIII,DRSC23187,121,131,,,inactive
CG4021,DRSC04439,147,133,,,inactive
Cpr65Ay,DRSC08796,,,,,inactive
CG10472,DRSC09730,72.3,104,,,active
Tep2,DRSC02679,221,92.4,,,inactive
Tep2,DRSC03451,61.5,204,,,active
CG8785,DRSC07266,160,169,,,inactive
CG6966,DRSC16156,152,207,,,inactive
Dip-C,DRSC15855,109,142,,,inactive
GstE12,DRSC04047,110,144,,,inactive
CCHa1-R,DRSC06456,158,138,,,inactive
CCHa1-R,DRSC06715,178,166,,,inactive
Pgant9,DRSC05621,153,102,,,inactive
Pgant9,DRSC06584,124,124,,,inactive
Pgant9,DRSC07185,167,151,,,inactive
Pgant9,DRSC07186,156,204,,,inactive
Pgant9,DRSC07187,118,108,,,inactive
Pgant9,DRSC07189,125,98.3,,,inactive
Pgant9,DRSC21807,159,99.2,,,inactive
Pgant9,DRSC22076,101,281,,,inactive
CG42834,DRSC13234,,,,,active
Sms,DRSC10408,114,93.5,,,inactive
Met75Ca + Met75Cb,DRSC11221,103,194,,,inactive
CG13579,DRSC04215,187,186,,,inactive
wuc,DRSC06152,108,181,,,inactive
Rcd7,DRSC10100,100,146,,,inactive
Nhe2,DRSC03172,169,89.7,,,inactive
Nhe2,DRSC03377,68.7,162,,,inactive
Flo2,DRSC19062,75.3,102,,,inactive
Flo2,DRSC20244,91.9,107,,,inactive

Looked up above:
Value of CG13579 [DRSC04215] in “calcium signal, replicate 1”: 187
Under “calcium signal, replicate 2”, Flo2 [DRSC20244] has 107
Pgant9 [DRSC06584], call → inactive
Entry of CG4021 [DRSC04439] under “call”: inactive
